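Whole-parasite assay of Trypanosoma brucei over 72 hours; the read-out is not stated. Tested at 30 µM. Direction is inferred from retests: higher values go with stronger inhibition. Values scatter widely below zero; nearly all retest evidence comes from the higher of the two concentrations used. About 64,000 compounds were tested under these conditions; 1.5% (about 940) showed 50% or more at least once.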

Values are the deposited “Percent Effect”, in %. How 0% and 100% were set is not recorded. Most values in the screen are low, and negative values occur. This is an unselected part of the compounds tested.

| # | SMILES | Percent Effect |
|---|---|---|
| 1 | `CC(c1cccc(-c2ncccc2F)c1)N(C)C` (centres undefined) | -18.49 |
| 2 | `Cc1cc(C2CCC2)nc(N(C)CCc2ccccn2)n1` | -66.76 |
| 3 | `COCCn1cc(-c2cc(C(=O)N3CCCC3)c3ccccn23)nc1C` | -33.43 |
| 4 | `O=C(O)C(F)(F)F.O=C1CCCN1Cc1nnc2n1CCCN(Cc1ccco1)C2` | -37.98 |
| 5 | `COc1c(CNCCc2c[nH]c3cc(F)ccc23)c(C)nn1C` | 15.4 |
| 6 | `Cc1cc(CNC(=O)C2CCN(CC(N)=O)CC2)cc(C)n1` | -76.33 |
| 7 | `CC(NC(=O)N(C)Cc1ccsc1)c1ccc2c(c1)CCC(=O)N2` (centres undefined) | -5.537 |
| 8 | `CCC(C)N(Cc1sccc1C)C(=O)c1ccc(S(C)(=O)=O)cc1` (centres undefined) | -14.55 |
| 9 | `CCCOc1ccc2c(c1)OCC(C(=O)NC(C)Cn1cccn1)=C2` (centres undefined) | -6.185 |
| 10 | `Cc1cccc2c1nc1n2[C@@H](CNC(=O)C2CCOCC2)COC1` | -3.97 |
| 11 | `CC(C(=O)N1CCCN(c2ccc(C#N)cc2)CC1)n1cccn1` (centres undefined) | -19.08 |
| 12 | `C/C(=C\c1ccccc1)CN1CCCC(c2nnc3n2CCNCC3)C1.Cl` (centres undefined) | -29.45 |
| 13 | `Cc1cc(N2CCCC2c2cccnc2)nc(C)n1` (centres undefined) | -49.78 |
| 14 | `CCn1c(Nc2ccccc2OC)nc2c(C)nn(C)c2c1=O` | -7.95 |
| 15 | `CC(C)N(C)C(=O)c1ccc(Cl)c(NC(=O)COCC2CC2)c1` | 7.307 |
| 16 | `c1ccc(N2CCCC(c3nc(-c4cccnn4)no3)C2)nc1` (centres undefined) | -24.28 |
| 17 | `CNc1cc(-c2ccncc2)ncn1` | -17.63 |
| 18 | `CC(C)CN1Cc2nc(N)ncc2C1=O` | 11.99 |
| 19 | `Cc1nc(C2CN(C)CCO2)cc(N2CCC(C(N)=O)CC2)n1` (centres undefined) | -0.2234 |
| 20 | `CC(C)c1cnc(CN2CCCS2(=O)=O)o1` | -61.83 |
| 21 | `CCc1noc(C(C)N2CCc3c(ncn3C3CC3)C2)n1` (centres undefined) | -10.84 |
| 22 | `Cc1ccc(CN2CCC3(CC2)NC(=O)CC3c2ccccc2)s1.O=C(O)C(F)(F)F` (centres undefined) | -68.71 |
| 23 | `CCn1c(C2CCCN(Cc3ccnc4ccccc34)C2)nn(C)c1=O` (centres undefined) | -10.24 |
| 24 | `CC(C)n1cnnc1CN(C)CC1CCOC1` (centres undefined) | -21.47 |
| 25 | `Cc1ccc(CN2CCC3(CC2)C(=O)N(CC(C)C)CCN3C)o1.O=C(O)C(F)(F)F.O=C(O)C(F)(F)F` | -19.53 |
| 26 | `Cc1cc(C)c(CNc2cnc3ccccc3n2)c(=O)[nH]1` | -317 |
| 27 | `Cc1[nH]ccc1C(=O)N[C@H]1CN(CCO)C[C@@H]1C1CC1` | -54.1 |
| 28 | `COCCCC(=O)Nc1cc(Cl)c(Cl)cn1` | -40.01 |
| 29 | `CC(=O)N1CCC(Cc2cnc(-c3c(C)n[nH]c3C)cn2)C1` (centres undefined) | 14.16 |
| 30 | `Cc1ccc(C)c(S(=O)(=O)NCCOc2ccc3nnc(C)n3n2)c1` | -37.32 |
| 31 | `CC(C)c1ccn(C2(C(=O)O)CCN(c3cc(C(N)=O)ccn3)CC2)n1` | -10.9 |
| 32 | `CC1(C(=O)N2CCC(n3cc(C4(O)CCCC4)nn3)CC2)CCCCC1` | -15.23 |
| 33 | `Cc1ncsc1C(=O)N(Cc1cccs1)C1CC1` | 5.892 |
| 34 | `[H][C@]12CCN(C(=O)c3ccccn3)CC[C@@]1([H])S(=O)(=O)N(CC(C)C)C2` | 3.479 |
| 35 | `COCCOc1ncccc1C(=O)N(C)c1ccc(OC)c(OC)c1` | -46.88 |
| 36 | `O=C(O)C(F)(F)F.O=C(O)C(F)(F)F.[H][C@]12CCN(c3ncc(C)cn3)C[C@@]1([H])OCCN(Cc1ccncc1)C2` | -12.13 |
| 37 | `COc1ccc(CCN2CCc3c(nc(C4CC4)n3C)C2)cc1` | -20.62 |
| 38 | `CCN(Cc1cn(C)nc1-c1ccc2c(c1)OCCO2)CC1CCCO1` (centres undefined) | -15.35 |
| 39 | `CN(Cc1cnn(C)c1)Cc1nc(CCc2ccccc2)no1` | -66.69 |
| 40 | `Cc1n[nH]c(C2CN(CC(=O)NCCc3ccccc3C)CCO2)n1` (centres undefined) | -32.24 |
| 41 | `O=C(Nc1cc(CSCCO)ccn1)c1ccc(Cl)o1` | -94.49 |
| 42 | `[H][C@]12CC[C@@]3(N=C(C)NC3=O)[C@@]1([H])CN(C(=O)NCc1ccccc1C)C2` | 48.22 |
| 43 | `O=C(N[C@]12CC1CN(C(=O)c1ccco1)C2)c1cccc(F)c1` (some centres undefined) | -19.27 |
| 44 | `O=c1ccn([C@H]2CCN(Cc3ncc[nH]3)CC[C@@H]2O)c(=O)[nH]1` | 18.93 |
| 45 | `Cc1nn(C)c(N(C)C)c1CNCc1cccnc1N(C)C` | -17.14 |
| 46 | `O=C1CSC(c2ccsc2)c2c(n(C3CCCC3)[nH]c2=O)N1` (centres undefined) | -28.11 |
| 47 | `Cc1ccc(C)c(S(=O)(=O)CCN2CCCC2Cn2cccn2)c1` (centres undefined) | 12.94 |
| 48 | `Cc1ccc2c(c1)OC(C)CN2C(=O)c1c[nH]c(C)cc1=O` (centres undefined) | -22.65 |
| 49 | `CCCC(C)NC1CCN(c2ccc(-n3ccnc3C)cc2)CC1` (centres undefined) | -22.61 |
| 50 | `CC(NC1(CNS(=O)(=O)N(C)C)CCCC1)c1ccccc1` (centres undefined) | -43.44 |
| 51 | `CNc1cccc(CC2COCCN(C(=O)c3cccnc3)C2)n1` (centres undefined) | 5.622 |
| 52 | `CC(C)(C)c1cc(NC(=O)CN2CCc3cncnc3C2)on1` | 8.588 |
| 53 | `Cc1nccn1-c1cccc(C2CCCN(C3CCCC3)C2)n1` (centres undefined) | 2.513 |
| 54 | `Cn1cc(CN2CCN(Cc3nccn3C)CC2)cn1` | -16.16 |
| 55 | `[H][C@]12CN(C(=O)C3CC(F)(F)C3)C[C@@]1([H])OCCN(S(C)(=O)=O)C2` | -4.421 |
| 56 | `[H][C@@]12CCN(Cc3nccs3)[C@]1([H])CC[C@H](C(=O)N1CCN(C)CC1)O2` | -0.8611 |
| 57 | `COc1ccc(N2Cc3nc(N4CCCC4)ncc3C2=O)cc1Cl` | -2.043 |
| 58 | `CN1CC2(CCN(c3nc(N)nc4c3CCNC4)CC2)OC1=O` | 9.586 |
| 59 | `CCC[C@H]1CN(CCS(C)(=O)=O)C[C@@H]1NC(=O)c1ccccn1` | -21.83 |
| 60 | `N#Cc1ccc(N2CCC(OCCc3ccccc3)CC2)nc1` | 8.162 |
| 61 | `Cc1occc1CNC(=O)Nc1ccc2nc(N3CCOCC3)oc2c1` | -2.277 |
| 62 | `COc1ccc(CC(C)(O)CNC(=O)NCc2cccs2)cc1` (centres undefined) | -30.07 |
| 63 | `CCC(CO)N(Cc1cccnc1)Cc1ccc(-c2ccn[nH]2)s1` (centres undefined) | 20.26 |
| 64 | `CCC(=O)NCC(=O)Nc1ncc(I)cc1C` | 3.064 |
| 65 | `NCc1ccccc1Sc1ccc(O)cc1.O=C(O)/C=C\C(=O)O` | -31.84 |
| 66 | `[H][C@]12CC[C@]([H])(CN(C(=O)c3cccnc3)C1)N(Cc1cccc(Cl)c1F)C2` | -47.24 |
| 67 | `CNC(=O)c1cccnc1NCc1ccc(-n2cccn2)cc1` | -54.33 |
| 68 | `Cc1cnn(C2CCCN(C(=O)Cc3ccc(C)s3)C2)c1` (centres undefined) | 2.822 |
| 69 | `CCC[C@H]1CN(Cc2cncn2C)C[C@@H]1NC(=O)C1(COC)CCC1` | -33.35 |
| 70 | `CN1CCCN(C(=O)c2csc(-c3ccc(C(F)(F)F)cc3)n2)CC1` | -48.91 |
| 71 | `COc1ccc(OC)c(CN(C(=O)c2ccc(C)[nH]c2=O)C2CC2)c1` | -51.29 |
| 72 | `c1ccc(CCc2noc(CN3CCC(N4CCSCC4)CC3)n2)cc1` | -35.88 |
| 73 | `CCc1nccn1C1CCCN(C(=O)c2ccn(-c3ccccc3)n2)C1` (centres undefined) | 40.13 |
| 74 | `O=C(NCCCO)Nc1cccc(C[S+]([O-])c2ccccc2)c1` (centres undefined) | 3.447 |
| 75 | `COCCN(C)C[C@@H]1CN(c2nc(C)cc(C)n2)C[C@@H]1CO` | -45.82 |
| 76 | `CC(=O)NC1CCN(c2ncnc3c2c(C)nn3C)C1` (centres undefined) | -26.23 |
| 77 | `NCc1cn(-c2ccccc2C(=O)NCc2ccccc2Cl)cn1` | -4.342 |
| 78 | `CNC(=O)c1sccc1S(=O)(=O)NC` | -10.73 |
| 79 | `O=C(CN(Cc1cccnc1)CC1CCCO1)Nc1ccc(F)cc1` (centres undefined) | 49 |
| 80 | `O=C(O)C1CN(Cc2cccc(-c3ccccn3)c2)CCO1` (centres undefined) | -12.32 |
| 81 | `O=C(O)C(F)(F)F.[H][C@@]12COC[C@]1(CNC(=O)c1cccn1C)CN(Cc1nccs1)C2` | -23.63 |
| 82 | `CCN(c1ccc(C(=O)N2CCC(C)CC2)cc1)S(=O)(=O)CC` | -22.98 |
| 83 | `CCN1Cc2nccn2CC(COCc2csc(C)n2)C1.O=C(O)C(F)(F)F.O=C(O)C(F)(F)F` (centres undefined) | -47.52 |
| 84 | `O=C1CN(CC2CC2)Cc2nc(NCc3ccccc3)sc21` | -20.73 |
| 85 | `CCC(C)[C@H](N)c1nnc(SCC(=O)Nc2ccc(C)cc2C)o1.Cl` (some centres undefined) | -41.2 |
| 86 | `CC(Nc1ccc(CC(=O)N(C)C)cc1)C(=O)N(C)CCC#N` (centres undefined) | -3.017 |
| 87 | `CNC(=O)C1CCCN(C(=O)c2cncs2)C1` (centres undefined) | -22.45 |

For reference, 5 entries once more:

| SMILES | Percent Effect |
|---|---|
| `Cc1nc(C2CN(C)CCO2)cc(N2CCC(C(N)=O)CC2)n1` (centres undefined) | -0.2234 |
| `O=C(O)C(F)(F)F.[H][C@@]12COC[C@]1(CNC(=O)c1cccn1C)CN(Cc1nccs1)C2` | -23.63 |
| `Cc1cc(C2CCC2)nc(N(C)CCc2ccccn2)n1` | -66.76 |
| `CC(C(=O)N1CCCN(c2ccc(C#N)cc2)CC1)n1cccn1` (centres undefined) | -19.08 |
| `COc1ccc(CCN2CCc3c(nc(C4CC4)n3C)C2)cc1` | -20.62 |

The values are deposited in ChEMBL (CHEMBL3988442, “University of Dundee, Small-Polar-MMV Screening Library” (2021)).